From PubChem BioAssay AID1487 (National Center for Advancing Translational Sciences (NCATS), 2009)
Where “and” joins values, the source holds several entries; their conditions need not be identical. Identical values can stand only once. The list shows a part of the results. Shown are side measurements of this screen, not its main read-out; they come without a call. The list favours compounds with an active or inconclusive main result. The note in brackets gives the kind of curve behind each potency; many fits are weak.

Assay: qHTS Assay for Modulators of Lamin A Splicing
Conditions: HeLa LMNA splicing GFP/RFP minigene ratio, 48 h
Method in brief: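 Read-out is the ratio of GFP to DsRed2 object intensity, acquired by 488 nm laser-scanning cytometry on HeLa lamin A-EGFP minigene reporter cells. Compound incubation 48 hrs at 37 °C in Opti-MEM with 2% FBS; DMSO 0.5% final.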

[1] = measured here: GFP splicing reporter channel
[2] = measured here: RFP viability control channel

Structure (SMILES)	AC50 [1]	AC50 [2]
CCOC(=O)c1cc2c(ccn2C)n1CC(=O)N(Cc1ccccc1)c1ccccc1	17.8 µM [rising, single point]	22.4 µM [rising, single point]
CC(C)CNS(=O)(=O)c1ccc(NC(=O)Cn2nc(-c3ccc(F)cc3)ccc2=O)cc1	–	35.5 µM [rising, single point]
CCCCn1nc(NC(=O)c2cccs2)c2cc3cc(OC)ccc3nc21	–	35.5 µM [rising, single point]
O=C(O)c1ccc2c(=O)[nH]c(CCl)nc2c1	11.2 µM [falling, single point]	–
CCCn1nc(Oc2nc(NC(C)C)nc(N(C)C)n2)ccc1=O	–	0.00891 µM [falling, full curve, poor fit]
CCCC(=O)O[C@]1(C(=O)CO)CCC2[C@@H]3CCC4=CC(=O)CC[C@]4(C)C3C(O)C[C@]21C (stereo partly specified)	3.16 µM [falling, partial curve, poor fit]	35.5 µM [falling, single point]
Cc1cccc(N(C)C(=S)Oc2ccc3ccccc3c2)c1	1.26 nM [falling, full curve, poor fit] and 31.6 nM [falling, full curve, poor fit]	14.1 µM [falling, single point] and 35.5 µM [rising, single point]
CC(C)NC(=O)c1ccccc1NC(=O)C1COc2ccccc2O1 (stereo unspecified)	31.6 µM [rising, single point]	31.6 µM [rising, single point]
COc1ccc(Nc2ccc(S(=O)(=O)N3CCCCC3)cc2[N+](=O)[O-])cc1	12.6 µM [rising, single point]	12.6 µM [rising, partial curve]
CCOC(=O)c1[nH]c2ccc(OC)cc2c1NS(=O)(=O)c1ccc(Cl)s1	25.1 µM [rising, single point]	35.5 µM [rising, single point]
CCc1nnc(NC(=O)CSc2nc3c(c(=O)n2C)SC(C)C3)s1 (stereo unspecified)	–	35.5 µM [rising, single point]
O=C1CN(c2ccc(Br)cc2)C(=O)N1CC(=O)N1CCCc2ccccc21	11.2 µM [rising, partial curve, poor fit]	15.8 µM [rising, partial curve]
CCCCC/C=C\C/C=C\CCCCCCCC(=O)O	–	0.178 µM [rising, full curve]
COc1ccc(N2CCN(C(=O)CCCSc3nc4ccccc4[nH]3)CC2)cc1	12.6 µM [rising, single point]	17.8 µM [rising, single point]
COc1cc(C2c3c(-c4cc(C)cc(C)c4O)n[nH]c3C(=O)N2CCCO)cc(OC)c1OC (stereo unspecified)	31.6 µM [rising, single point]	–
CC(C)(C)NC(=O)NC(=O)COC(=O)Cn1cnc2ccccc2c1=O	–	20 µM [falling, single point]
O=C(CSc1nnc(NC(=O)C2CC2)s1)Nc1ccc2c(c1)OCCO2	–	2.82 µM [falling, partial curve, poor fit]
CNC(=O)CCSSCCC(=O)NC	8.91 µM [falling, partial curve, poor fit]	8.91 µM [falling, partial curve, poor fit]
O=C(O)c1ccc2c(=O)n3c(nc2c1)/C(=C/c1ccccc1C(F)(F)F)CCCC3	0.794 µM [falling, full curve, poor fit]	–
CCCCN(C)C(=O)c1cc2cc3cc(OC)ccc3nc2o1	–	0.0178 µM [falling, full curve]
N#CC1=C(N)C2=CCCC[C@H]2[C@H](c2ccccc2)C1(C#N)C#N	22.4 µM [rising, single point]	35.5 µM [rising, single point]
CCc1ccccc1OCC(=O)OCC(=O)c1c(N)n(C)c(=O)n(C)c1=O	0.00447 µM [rising, full curve, poor fit]	–
CCCc1cc(-c2[nH]ncc2-c2ccc3c(c2)OCCCO3)c(O)cc1OC	–	12.6 µM [rising, partial curve]
C=CCNC1=C2C[C@@H](C)C[C@H](OC)[C@H](O)[C@@H](C)/C=C(\C)[C@H](OC(N)=O)[C@@H](OC)/C=C\C=C(/C)C(=O)NC(=CC1=O)C2=O	0.00178 µM [falling, full curve, poor fit]	11.2 µM [rising, partial curve]
O=C(Nc1cccs1)Nc1c(F)c(F)c(F)c(F)c1F	–	25.1 µM [rising, partial curve, poor fit]
Cc1cc(C)c(Nc2ncccc2C(=O)O)c(C)c1	–	0.00891 µM [falling, full curve, poor fit]

Structure (SMILES)	AC50 [1]	AC50 [2]
Cc1ccc(CNC(=O)C(=O)NCC(c2cccnc2)N2CCN(c3ccccc3F)CC2)cc1 (stereo unspecified)	25.1 µM [falling, partial curve]	25.1 µM [falling, partial curve]
Cc1ccc2nsnc2c1S(=O)(=O)N1CCCC1C(=O)O (stereo unspecified)	–	5.62 µM [falling, single point]
O=C(NCC1CCCO1)C(c1ccncc1)N(Cc1cccs1)C(=O)Cn1nnc(-c2ccc(F)cc2)n1 (stereo unspecified)	2.24 µM [falling, partial curve, poor fit]	–
CC12CN3CCN(CC(C3)C1(O)CN1CCOCC1)C2 (stereo unspecified)	–	3.16 µM [falling, partial curve, poor fit]
O=C(COC(=O)c1n[nH]c2ccccc12)NC(=O)NCc1ccco1	12.6 µM [rising, partial curve, poor fit]	–
COCc1cnc(C)nc1N	–	7.94 µM [rising, partial curve, poor fit]
CC1=CC(C)(C)Nc2ccc(OC(=O)CN3C(=O)c4ccccc4C3=O)cc21	31.6 µM [rising, single point]	31.6 µM [rising, single point]
Cc1ccc2[nH]c(=O)c(CN(Cc3ccco3)S(=O)(=O)c3c(C)ccc4nsnc34)cc2c1	22.4 µM [rising, single point]	20 µM [rising, partial curve]
CC(C)CC(=O)NC(=S)Nc1ccc(S(=O)(=O)NC(C)(C)C)cc1	35.5 µM [rising, single point]	35.5 µM [rising, single point]
CC(OC(=O)c1cc2sccc2n1C)C(=O)NCc1ccco1 (stereo unspecified)	17.8 µM [rising, single point]	31.6 µM [rising, single point]
CCOC(=O)c1c(NC(=S)Nc2ccccc2)sc2c1CCCCC2	11.2 µM [rising, single point]	35.5 µM [rising, single point]
CCOC(=O)C1=C(C)Nc2nnnn2C1c1ccccc1Cl (stereo unspecified)	–	1.26 µM [rising, partial curve]
COc1ccc(S(=O)(=O)n2nc(OC(=O)c3ccccc3Br)cc2N)cc1	–	35.5 µM [falling, single point]
COc1ccc2nc(SCC(=O)Nc3ccccc3)[nH]c2c1	12.6 µM [rising, single point]	15.8 µM [rising, single point]
O=C(Nc1cc(Sc2nc3ccccc3s2)cc([N+](=O)[O-])c1)c1ccccc1	–	15.8 µM [rising, single point]
CN(C(=O)c1ccc2c(c1)OCO2)C1(C(=O)NC2CCCCC2)CCCCC1	15.8 µM [rising, single point]	14.1 µM [rising, single point]
CC(C)CCn1cnc2c(cnn2-c2ccc(F)cc2)c1=O	–	14.1 µM [rising, single point]
Cc1ccc(SCCNC(=S)Nc2ccc(C)c(C)c2)cc1	22.4 µM [falling, single point]	12.6 µM [falling, partial curve]
CC(=O)N1c2ccccc2N2C(c3c(C)c(C)cc(C)c3C)=NON12	12.6 µM [falling, partial curve, poor fit]	15.8 µM [falling, partial curve, poor fit]
CCn1c(CN2CCCCC2)nc2cc(NC(=O)c3ccc([N+](=O)[O-])cc3)ccc21	2.51 µM [falling, partial curve]	–
COC(=O)c1c(NC(=O)/C=C/C(=O)O)sc(C)c1-c1ccc(C)c(C)c1	–	35.5 µM [rising, single point]
C/C(=N\OC(=O)c1c(-c2ccccc2Cl)noc1C)c1ccncc1	5.01 µM [falling, single point]	0.00316 µM [falling, full curve, poor fit]
CN(C)C(=S)N=Nc1[nH]c2ccccc2c1O	–	35.5 µM [rising, single point]
CC(C)CN1CCN(Cc2cnc(-c3ccc(Cl)cc3)nc2)CC1CCO (stereo unspecified)	0.282 µM [falling, full curve]	0.708 µM [falling, full curve]
CCn1c(SCC(=O)Nc2nccs2)nnc1-c1ccc(S(=O)(=O)N2CCCCCC2)cc1	–	22.4 µM [rising, single point]
Cc1c(C(=O)NCCc2ccc(S(N)(=O)=O)cc2)sc2nc3n(c(=O)c12)CCCC3	6.31 µM [falling, partial curve]	0.00282 µM [falling, full curve]
